In the experiment the target is Hypoxia-inducible factor 1 alpha (HIF-1α) (mouse (endogenous in MC-38 and CT26)) (UniProt Q61221). Kind of experiment: co-IP; MC-38 Mock cell lysate (10 mM Tris-HCl pH 8.0, 1 mM EDTA, 400 mM NaCl, 0.1% NP-40); cells under normoxia or hypoxia (0.2% O2, 8 h) with or without LPS (1 µg/mL, 1 h); 1.5 mg lysate with 6 µg anti-TRAF6 or anti-HIF-1α and Dynabead Protein G overnight at 4 °C; blot for HIF-1α or TRAF6.

Sequences of proteins named here, by UniProt entry; tags and fusion partners are left off.
UniProt Q61221: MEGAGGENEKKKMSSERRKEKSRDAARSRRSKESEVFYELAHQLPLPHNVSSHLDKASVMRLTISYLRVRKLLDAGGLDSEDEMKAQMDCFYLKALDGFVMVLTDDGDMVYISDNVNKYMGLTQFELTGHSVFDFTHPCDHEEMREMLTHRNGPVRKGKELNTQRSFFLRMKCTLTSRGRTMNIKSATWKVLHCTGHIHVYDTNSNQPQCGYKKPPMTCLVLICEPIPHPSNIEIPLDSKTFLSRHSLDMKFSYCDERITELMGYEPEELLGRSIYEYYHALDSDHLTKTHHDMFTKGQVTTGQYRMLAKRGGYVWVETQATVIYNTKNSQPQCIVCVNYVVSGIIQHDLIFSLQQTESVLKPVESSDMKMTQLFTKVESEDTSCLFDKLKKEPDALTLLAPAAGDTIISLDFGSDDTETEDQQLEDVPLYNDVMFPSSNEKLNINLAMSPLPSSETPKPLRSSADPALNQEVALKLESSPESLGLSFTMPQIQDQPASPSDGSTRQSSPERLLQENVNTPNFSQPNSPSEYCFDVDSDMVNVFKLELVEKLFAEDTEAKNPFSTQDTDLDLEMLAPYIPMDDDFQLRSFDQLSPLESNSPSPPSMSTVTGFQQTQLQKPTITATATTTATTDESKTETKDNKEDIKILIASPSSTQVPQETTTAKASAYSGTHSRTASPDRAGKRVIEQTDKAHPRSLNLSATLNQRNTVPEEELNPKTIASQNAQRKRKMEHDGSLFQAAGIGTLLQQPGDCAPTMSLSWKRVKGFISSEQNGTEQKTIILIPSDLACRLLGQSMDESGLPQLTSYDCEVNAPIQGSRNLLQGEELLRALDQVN

The values below come from publication PMC7588814.

These are yes or no findings as the source states them, for the method shown. Binding seen in cells or lysates may run through a third protein. Some results given as binding are weak or reduced against the parent protein; the word gives no strength.

B1: tumor necrosis factor receptor-associated factor 6 (TRAF6) (protein, UniProt P70196 1-530)
chain: MSLLNCENSCGSSQSSSDCCAAMAASCSAAVKDDSVSGSASTGNLSSSFMEEIQGYDVEFDPPLESKYECPICLMALREAVQTPCGHRFCKACIIKSIRDAGHKCPVDNEILLENQLFPDNFAKREILSLTVKCPNKGCLQKMELRHLEDHQVHCEFALVNCPQCQRPFQKCQVNTHIIEDCPRRQVSCVNCAVSMAYEEKEIHDQSCPLANIICEYCGTILIREQMPNHYDLDCPTAPIPCTFSVFGCHEKMQRNHLARHLQENTQLHMRLLAQAVHNVNLALRPCDAASPSRGCRPEDPNYEETIKQLESRLVRQDHQIRELTAKMETQSMYVGELKRTIRTLEDKVAEMEAQQCNGIYIWKIGNFGMHLKSQEEERPVVIHSPGFYTGRPGYKLCMRLHLQLPTAQRCANYISLFVHTMQGEYDSHLPWPFQGTIRLTILDQSEALIRQNHEEVMDAKPELLAFQRPTIPRNPKGFGYVTFMHLEALRQGTFIKDDTLLVRCEVSTRFDMGGLRKEGFQPRSTDAGV
Regarding B1, the binding entry is recorded as “binds”.
